Results are given in words; binding and its absence hold for the method and conditions named. Some binding calls cover weakened binding; strength is not graded here. Sequences can lack the tags named with a protein.

For this experiment, the target named is T1, Full-length rat TRPV2 with a C-terminal 1D4 tag, reconstituted into MSP2N2 nanodiscs (rat), Q9WUD2.
T1 chain: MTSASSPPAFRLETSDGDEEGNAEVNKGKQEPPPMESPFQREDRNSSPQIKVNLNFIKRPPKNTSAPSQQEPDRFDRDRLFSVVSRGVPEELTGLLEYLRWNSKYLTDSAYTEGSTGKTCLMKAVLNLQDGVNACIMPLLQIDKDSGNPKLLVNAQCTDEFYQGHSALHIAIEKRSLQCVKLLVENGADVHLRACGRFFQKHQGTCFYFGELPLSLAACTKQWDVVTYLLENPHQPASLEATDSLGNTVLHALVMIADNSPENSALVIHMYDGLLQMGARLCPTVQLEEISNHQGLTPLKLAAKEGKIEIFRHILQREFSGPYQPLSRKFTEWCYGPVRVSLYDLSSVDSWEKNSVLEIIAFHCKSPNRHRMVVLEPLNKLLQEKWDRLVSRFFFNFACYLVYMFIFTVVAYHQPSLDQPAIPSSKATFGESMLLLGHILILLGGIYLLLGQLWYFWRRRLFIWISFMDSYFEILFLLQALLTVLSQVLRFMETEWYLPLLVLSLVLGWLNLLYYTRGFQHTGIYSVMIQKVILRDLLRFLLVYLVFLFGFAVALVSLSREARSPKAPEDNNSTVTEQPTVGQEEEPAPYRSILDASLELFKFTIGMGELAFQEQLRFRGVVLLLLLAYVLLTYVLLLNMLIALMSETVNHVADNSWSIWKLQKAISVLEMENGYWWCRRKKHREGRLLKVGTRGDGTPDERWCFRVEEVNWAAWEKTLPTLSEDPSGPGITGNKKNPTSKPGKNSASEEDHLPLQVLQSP
Description: cryo-EM structure; rTRPV2 in MSP2N2/soy polar lipid nanodiscs; apo dataset at pH 8 (states Apo1, Apo2, Apo3) and dataset with 30 mM sodium acetate at final pH 5.0 (TRPV2_HOAc); grids prepared at 4 °C; maps refined with C4 symmetry; both purified. As to conditions: remark: other sources report otherwise.

B1: Full-length rat TRPV2 with a C-terminal 1D4 tag, reconstituted into MSP2N2 nanodiscs, Q9WUD2 1-761 (natural protein)
chain: MTSASSPPAFRLETSDGDEEGNAEVNKGKQEPPPMESPFQREDRNSSPQIKVNLNFIKRPPKNTSAPSQQEPDRFDRDRLFSVVSRGVPEELTGLLEYLRWNSKYLTDSAYTEGSTGKTCLMKAVLNLQDGVNACIMPLLQIDKDSGNPKLLVNAQCTDEFYQGHSALHIAIEKRSLQCVKLLVENGADVHLRACGRFFQKHQGTCFYFGELPLSLAACTKQWDVVTYLLENPHQPASLEATDSLGNTVLHALVMIADNSPENSALVIHMYDGLLQMGARLCPTVQLEEISNHQGLTPLKLAAKEGKIEIFRHILQREFSGPYQPLSRKFTEWCYGPVRVSLYDLSSVDSWEKNSVLEIIAFHCKSPNRHRMVVLEPLNKLLQEKWDRLVSRFFFNFACYLVYMFIFTVVAYHQPSLDQPAIPSSKATFGESMLLLGHILILLGGIYLLLGQLWYFWRRRLFIWISFMDSYFEILFLLQALLTVLSQVLRFMETEWYLPLLVLSLVLGWLNLLYYTRGFQHTGIYSVMIQKVILRDLLRFLLVYLVFLFGFAVALVSLSREARSPKAPEDNNSTVTEQPTVGQEEEPAPYRSILDASLELFKFTIGMGELAFQEQLRFRGVVLLLLLAYVLLTYVLLLNMLIALMSETVNHVADNSWSIWKLQKAISVLEMENGYWWCRRKKHREGRLLKVGTRGDGTPDERWCFRVEEVNWAAWEKTLPTLSEDPSGPGITGNKKNPTSKPGKNSASEEDHLPLQVLQSP
Consider B1, for which the binding result is on record as “binds”.
